# Data reported in patent US10588982B2, “Site-specific covalent chemical ligation to monoclonal and polyclonal immunoglobulin” (The Regents of the University of California, priority 2015, dated 2020).
# Assay: HABA-avidin biotin quantification of biotinylated antibody conjugates
compound,measurement,setting,value
Rituximab-DS,# of biotin,"mAb-DS, biotin per antibody",2.1
Bevacizumab-NHS,# of biotin,"mAb-NHS, biotin per antibody",4.47
"O=C1N[C@H]2[C@H](CS[C@H]2CCCCC(=O)ON2C(=O)CC(S(=O)(=O)[O-])C2=O)N1.[Na+] (stereo partly shown) [NH2-reactive biotin, sulfo-NHS-biotin]",average biotin per antibody ratio,"maleimide (MDS) conjugates TMDS, BMDS, RMDS, NMDS",5-10
Bevacizumab: clinically approved monoclonal antibody,# of biotin,"mAb, unconjugated",0
Rituximab: clinically approved monoclonal antibody,# of biotin,"mAb, unconjugated",0
Rituximab-NHS,# of biotin,"mAb-NHS, biotin per antibody",6.58
Bevacizumab-DS,# of biotin,"mAb-DS, biotin per antibody",2.3
